Laboratory results from PubChem BioAssay AID2685 (National Center for Advancing Translational Sciences (NCATS), 2010).
The list shows a part of the results. Shown are side measurements of this screen, not its main read-out; they come without a call. Compounds called inactive in the main read-out are mostly missing here. Potencies come from curve fits of mixed quality, noted in brackets.

Experiment: qHTS Assay for Lipid Storage Modulators in Drosophila S3 Cells;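 on cell number change: cells counted by Cell Tracker Red CMTPX staining in the red channel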
Details: BODIPY lipid droplet fluorescence, 18-24 h; for cell number change: measured here: cell count max response, cells fed with added oleic acid
How it was run: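 Drosophila S3 cells got compounds at several concentrations plus oleic acid (400 uM solution). Laser-scanning cytometry with 488 nm excitation read lipid droplets at 500-530 nm and cells at 575-640 nm. Percent activity was relative to 20 uM Triacsin C.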

[1] = measured here: lipid fluorescence (Fed channel) AC50, cells fed with added oleic acid
[2] = measured here: cell number channel AC50, cells fed with added oleic acid

Structure (SMILES)	cell number change	AC50 [1]	AC50 [2]
Cc1ccccc1NC(=O)c1cccc(N2C(=O)C3C4CC(C(Br)C4Br)C3C2=O)c1 (stereo not drawn)	-16.1%	29100 nM [falling, single point]	–
CCOC(=O)[C@@H]1[C@H]2COc3cc(OC)ccc3[C@@H]2N2C(=O)N(c3ccc(F)cc3)C(=O)[C@]12C	6.29%	–	–
CC(C)C[C@@]12C(=O)N(c3cccc(F)c3)C(=O)N1[C@H](c1ccc(Br)cc1)[C@@H]1C(=O)N(C(C)(C)C)C(=O)[C@@H]12	-36.6%	–	29100 nM [falling, single point]
CCCN[C@@H]1C(=O)N2C(C(=O)OCCC)=C(C)CS[C@H]12	-5.5%	–	–
O=C(COC(=O)CN1C(=O)c2ccccc2C1=O)Nc1ccccc1[N+](=O)[O-]	-22.5%	4.61 nM [falling, full curve, poor fit]	4.61 nM [falling, full curve, poor fit]
COc1ccc(C(c2nnnn2Cc2cccs2)N2CCN(c3ccc(F)cc3)CC2)cc1OC (stereo not drawn)	58.7%	–	3660 nM [rising, full curve]
Cc1ccc(Cl)cc1N1CCN(C(=O)COc2ccc(S(=O)(=O)NC(C)C)cc2)CC1	-35.6%	23100 nM [falling, partial curve, poor fit]	25900 nM [falling, single point]
O=C(Nc1ccc(Cl)cc1)N1CCN(c2ncccn2)CC1	-18.8%	130 nM [falling, full curve, poor fit]	–
O=C(NCCCN1CCCC1=O)c1ccc(CNS(=O)(=O)c2ccc(F)cc2)cc1	16%	–	–
Cc1nc(-c2cccnc2)sc1C(=O)Nc1ccc(C(F)(F)F)cc1	–	6510 nM [rising, single point]	2590 nM [rising, single point]
O=C(/C=C/c1ccco1)NCc1ccccn1	–	–	820 nM [rising, single point]
COc1cc(/C=N/NC(=O)COc2c(C)cc([N+](=O)[O-])cc2C)ccc1OC(=O)c1ccccc1	31.6%	2060 nM [rising, partial curve]	3660 nM [rising, full curve, poor fit]
COc1ccccc1NC(=O)CCCN1C(=O)C2CC=CCC2C1=O (stereo not drawn)	22%	6510 nM [rising, single point]	–
N/C(=N\OC(=O)c1ccncc1)c1cccc([N+](=O)[O-])c1	-24.1%	6510 nM [rising, single point]	–
COc1ccccc1-n1c(SCC(=O)NC2CCCC2)nc2cccnc21	43.2%	411 nM [rising, full curve]	366 nM [rising, full curve]
COc1ccc(/C=N/S(=O)(=O)c2ccccc2)cc1OC	-10.8%	–	–
O=c1[nH]c2ccsc2c(=O)n1-c1ccc(F)cc1	10.5%	5.8 nM [falling, full curve, poor fit]	–
O=C(Cc1ccccc1[N+](=O)[O-])OCC(=O)c1c[nH]c2ccccc12	64%	–	18400 nM [rising, partial curve]
O=C(Cn1cnc2c(NC(=O)OCc3ccccc3)ncnc21)NCc1ccccn1	-14.1%	–	461 nM [falling, partial curve]

Structure (SMILES)	cell number change	AC50 [1]	AC50 [2]
Cc1cccc(NC(=S)NNC(=O)CCn2cc(C)cn2)c1	-23.2%	–	4110 nM [falling, full curve, poor fit]
COc1cc(SC)ccc1C(=O)NCCOc1ccccc1Cl	-1.38%	2590 nM [rising, partial curve]	–
CC(=O)N1CCN(C(=O)c2cc(=O)c3ccccc3o2)CC1	23.8%	–	–
CCN(CC)C(=O)C1CCCN(C/C=C/c2ccccc2[N+](=O)[O-])C1 (stereo not drawn)	32.4%	–	–
O=C(c1ccco1)N1CCN(C(=O)c2ccccc2OCc2ccc(Cl)cc2)CC1	–	–	5170 nM [rising, partial curve, poor fit]
COc1ccc(OC)c(/C=N/N(C)c2ccccc2)c1	-3.68%	6510 nM [rising, single point]	–
Cn1c(NCCCN2CCOCC2)nc2c1c(=O)n(Cc1ccc(Cl)cc1Cl)c(=O)n2C	17.2%	5.17 nM [falling, full curve, poor fit]	130 nM [rising, full curve, poor fit]
COc1ccc(CNC(=O)Cc2ccc(NC(=O)C3=C(C)OCCS3)cc2)cc1	21.8%	580 nM [rising, single point]	–
CCOC(=O)C1=C(C)N=c2s/c(=C\c3cccn3C)c(=O)n2C1c1cccc(OC)c1OC (stereo not drawn)	–	731 nM [falling, partial curve, poor fit]	1160 nM [falling, full curve, poor fit]
CC1=C(C(N)=O)C(c2ccccn2)n2nc(SCc3ccccc3Cl)nc2N1 (stereo not drawn)	-18.6%	146 nM [falling, full curve, poor fit]	–
COc1ccc(CCNC(=O)Cc2cc(OC)c(OC)cc2[N+](=O)[O-])cc1OC	22.8%	32600 nM [rising, partial curve, poor fit]	–
CSc1nc(Cl)c(C#N)c(-c2ccc(C)cc2)n1	-14.3%	–	73.1 nM [falling, full curve, poor fit]
Cc1ccc(-n2cccc2/C=C2\C(=N)N3N=C(C(C)C)SC3=NC2=O)cc1	–	651 nM [falling, full curve]	–
COc1cc(/C=C/C(=O)N2CCOCC2)ccc1OCc1ccccc1	13.6%	–	–
COc1cccc(C(=O)NC(=S)Nc2ccc(N3CCCC3)cc2)c1	-25.3%	820 nM [falling, full curve, poor fit]	–
COc1ccc(CNC(=O)C(=O)NCCC2CCCCN2S(=O)(=O)c2ccc(C)cc2)cc1 (stereo not drawn)	-33.1%	3660 nM [falling, partial curve]	13000 nM [falling, single point]
O=C(c1ccco1)N1CCN(C(=O)C2(S(=O)(=O)c3ccc(Cl)cc3)CC2)CC1	–	–	2310 nM [falling, partial curve]
CCn1cc(CNC(=O)C2CCC(=O)N(C3CCCCCC3)C2)cn1 (stereo not drawn)	14.7%	8200 nM [rising, partial curve]	–
CC12CCC(C(=O)NCc3ccccc3Cl)(CC1=O)C2(C)C (stereo not drawn)	128%	–	–

Structure (SMILES)	cell number change	AC50 [1]	AC50 [2]
CCc1ccc(NC(=O)Cn2c(SC)nc3ccccc32)cc1	-12.4%	6510 nM [rising, single point]	–
Cc1ccc(Cl)cc1N1CCN(C(=O)c2cccc3c(=O)c(C)c(-c4ccccc4)oc23)CC1	–	8200 nM [falling, partial curve]	–
O=C(c1ccccc1)c1nc[nH]c1C(=O)Nc1ccccc1	–	–	6510 nM [rising, single point]
COC(=O)c1ccc(C)c(NS(=O)(=O)c2ccc(NC(C)=O)cc2)c1	0.257%	92 nM [rising, full curve, poor fit]	–
CC(Sc1cccc[n+]1[O-])C(=O)Nc1ccc(Oc2ccccc2)cc1 (stereo not drawn)	-41%	794 nM [falling, full curve, poor fit]	251 nM [falling, full curve, poor fit]
CC12c3ccccc3C(c3ccccc31)C1C(=O)N(c3ccncc3)C(=O)C12 (stereo not drawn)	-18.8%	13000 nM [falling, partial curve]	–
Cc1nc(Nc2ccccc2Cl)sc1C(=O)Nc1ccccc1	-23.9%	18400 nM [falling, single point]	–
O=C(NC(=S)Nc1cc([N+](=O)[O-])ccc1O)c1cccnc1	38.4%	–	29100 nM [rising, single point]
Cc1c(/C=N/NC(=O)C(NC(=O)c2ccc3c(c2)OCO3)C(C)C)c2ccccc2n1C (stereo not drawn)	19.2%	5.17 nM [rising, full curve, poor fit]	–
N#C/C(=C(/O)c1ccccc1F)c1nc2cc(C(F)(F)F)ccc2s1	-19.4%	2910 nM [falling, full curve]	2590 nM [falling, single point]
CC(=O)N1CN(S(=O)(=O)c2ccc(C)cc2)CC1C (stereo not drawn)	-79.7%	29100 nM [falling, single point]	18400 nM [falling, single point]
Cc1c(C(=O)O)[nH]c2c1C(=O)CC(c1ccccc1)C2 (stereo not drawn)	-10.7%	–	–
Cc1nc(-c2ccccc2)sc1C(=O)CSc1ccccc1	–	65.1 nM [rising, full curve]	164 nM [rising, partial curve]
CCOC(=O)C1CCN(C(=O)CCNS(=O)(=O)c2ccc3c(c2)CCN3C(=O)CC)CC1	-4.96%	5170 nM [falling, single point]	5170 nM [rising, single point]
C/C(=N/NC(=O)CC(=O)N/N=C(\C)c1ccc([N+](=O)[O-])cc1)c1ccc([N+](=O)[O-])cc1	-0.748%	82 nM [falling, full curve, poor fit]	–
COc1ccc(C2C(O)C(c3c[nH]c4ccccc34)=NN2C(=O)CCl)cc1 (stereo not drawn)	1.26%	206 nM [rising, single point]	–
O=C(Nc1ncc2c(n1)-c1ccccc1CC2)C1CC1	1.04%	–	–
COc1ccc(NC(=O)c2ccc(C#N)cc2)cc1NS(=O)(=O)c1ccc(F)cc1	23.3%	4110 nM [rising, partial curve]	–
CCC(C)n1nccc1NC(=O)C(C)OC(=O)c1cc2ccccc2[nH]1 (stereo not drawn)	-13.2%	146 nM [rising, full curve, poor fit]	–

As entered above:
For AC50 [1], Cc1ccccc1NC(=O)c1cccc(N2C(=O)C3C4CC(C(Br)C4Br)C3C2=O)c1 (stereo not drawn) shows 29100 nM [falling, single point]
For AC50 [1], COc1ccc(OC)c(/C=N/N(C)c2ccccc2)c1 shows 6510 nM [rising, single point]
For cell number change, COc1cc(SC)ccc1C(=O)NCCOc1ccccc1Cl shows -1.38%
